Laboratory results reported in paper doi:10.1101/2022.04.06.487319 (bioRxiv, 2022).
These are yes or no findings as the source states them, for the method shown. Binding seen in cells or lysates may run through a third protein. Some results given as binding are weak or reduced against the parent protein; the word gives no strength. Sequences can lack the tags named with a protein.

How the values were obtained:
Assay in all cases: co-IP
[1] = biological target: T1, 3HA-Red1 (full length, Red1 1-827), pGAL1::3HA-RED1 (Saccharomyces cerevisiae) (UniProt P14291)
T1 sequence: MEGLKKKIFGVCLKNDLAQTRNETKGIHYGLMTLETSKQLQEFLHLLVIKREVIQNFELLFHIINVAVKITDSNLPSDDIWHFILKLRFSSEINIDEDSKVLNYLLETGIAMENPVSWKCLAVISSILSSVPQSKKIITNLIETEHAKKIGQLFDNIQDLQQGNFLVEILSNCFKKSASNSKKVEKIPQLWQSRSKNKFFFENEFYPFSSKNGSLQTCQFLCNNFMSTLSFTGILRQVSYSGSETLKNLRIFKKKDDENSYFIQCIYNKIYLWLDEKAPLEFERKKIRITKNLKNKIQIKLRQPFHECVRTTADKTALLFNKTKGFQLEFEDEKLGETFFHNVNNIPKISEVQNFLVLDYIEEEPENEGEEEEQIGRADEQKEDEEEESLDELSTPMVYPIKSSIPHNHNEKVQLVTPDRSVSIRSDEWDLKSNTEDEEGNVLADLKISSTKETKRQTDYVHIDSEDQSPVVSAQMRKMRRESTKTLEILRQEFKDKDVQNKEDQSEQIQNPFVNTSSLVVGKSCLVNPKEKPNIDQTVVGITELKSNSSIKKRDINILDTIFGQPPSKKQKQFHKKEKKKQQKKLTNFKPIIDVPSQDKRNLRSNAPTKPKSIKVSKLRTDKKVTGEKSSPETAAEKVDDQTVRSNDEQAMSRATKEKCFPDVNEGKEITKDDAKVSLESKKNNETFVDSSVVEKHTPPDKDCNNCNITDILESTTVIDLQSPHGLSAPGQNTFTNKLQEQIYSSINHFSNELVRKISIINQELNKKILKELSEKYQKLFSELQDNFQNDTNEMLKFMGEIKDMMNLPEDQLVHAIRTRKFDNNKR

[2] = biological target: T2, 3HA-Red1^1-345 (Saccharomyces cerevisiae) (UniProt P14291)
T2 sequence: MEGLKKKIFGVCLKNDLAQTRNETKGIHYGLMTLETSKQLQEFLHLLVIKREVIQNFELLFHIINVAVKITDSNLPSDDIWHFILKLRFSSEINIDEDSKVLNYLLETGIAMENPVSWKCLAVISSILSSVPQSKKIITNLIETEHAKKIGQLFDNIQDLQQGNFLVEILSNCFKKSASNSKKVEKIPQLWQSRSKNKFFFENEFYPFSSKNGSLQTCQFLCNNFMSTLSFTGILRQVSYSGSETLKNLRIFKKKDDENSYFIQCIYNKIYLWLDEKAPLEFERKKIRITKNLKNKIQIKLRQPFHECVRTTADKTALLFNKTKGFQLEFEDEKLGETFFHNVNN

[3] = biological target: T3, 3HA-Red1^367-827 (Saccharomyces cerevisiae) (UniProt P14291)
T3 sequence: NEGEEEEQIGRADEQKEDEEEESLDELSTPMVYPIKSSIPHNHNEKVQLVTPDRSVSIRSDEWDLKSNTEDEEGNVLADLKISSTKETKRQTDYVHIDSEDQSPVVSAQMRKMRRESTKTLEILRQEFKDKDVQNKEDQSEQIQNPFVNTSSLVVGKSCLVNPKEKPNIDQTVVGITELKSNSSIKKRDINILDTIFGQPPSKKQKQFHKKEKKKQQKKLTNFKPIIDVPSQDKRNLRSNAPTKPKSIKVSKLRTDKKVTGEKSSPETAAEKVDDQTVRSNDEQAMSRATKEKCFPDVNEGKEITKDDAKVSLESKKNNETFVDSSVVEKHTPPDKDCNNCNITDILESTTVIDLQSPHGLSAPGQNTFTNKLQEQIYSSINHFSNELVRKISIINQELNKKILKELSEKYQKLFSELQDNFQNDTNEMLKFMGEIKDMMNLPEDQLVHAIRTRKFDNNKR

[4] = biological target: T4, 3HA-Red1^1-366 (Saccharomyces cerevisiae) (UniProt P14291)
T4 sequence: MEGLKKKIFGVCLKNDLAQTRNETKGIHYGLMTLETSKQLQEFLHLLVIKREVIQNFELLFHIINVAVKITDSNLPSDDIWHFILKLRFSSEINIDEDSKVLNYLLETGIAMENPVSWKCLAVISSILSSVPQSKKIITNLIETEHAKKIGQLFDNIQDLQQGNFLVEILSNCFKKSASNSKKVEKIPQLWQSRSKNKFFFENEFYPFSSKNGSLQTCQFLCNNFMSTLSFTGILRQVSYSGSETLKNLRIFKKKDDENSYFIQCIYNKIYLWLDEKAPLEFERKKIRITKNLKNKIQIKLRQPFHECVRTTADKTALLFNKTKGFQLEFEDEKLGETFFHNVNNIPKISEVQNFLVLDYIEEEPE

B1: Hop1 (pGAL1::HOP1), untagged (protein, UniProt P20050 1-605)
chain: MSNKQLVKPKTETKTEITTEQSQKLLQTMLTMSFGCLAFLRGLFPDDIFVDQRFVPEKVEKNYNKQNTSQNNSIKIKTLIRGKSAQADLLLDWLEKGVFKSIRLKCLKALSLGIFLEDPTDLLENYIFSFDYDEENNVNINVNLSGNKKGSKNADPENETISLLDSRRMVQQLMRRFIIITQSLEPLPQKKFLTMRLMFNDNVDEDYQPELFKDATFDKRATLKVPTNLDNDAIDVGTLNTKHHKVALSVLSAATSSMEKAGNTNFIRVDPFDLILQQQEENKLEESVPTKPQNFVTSQTTNVLGNLLNSSQASIQPTQFVSNNPVTGICSCECGLEVPKAATVLKTCKSCRKTLHGICYGNFLHSSIEKCFTCIFGPSLDTKWSKFQDLMMIRKVFRFLVRKKKGFPASITELIDSFINVEDQNNEVKERVAFALFVFFLDETLCLDNGGKPSQTIRYVTSSVLVDVKGIVIPNTRKQLNVNHEYKWHFTTSSPKAESFYQEVLPNSRKQVESWLQDITNLRKVYSEALSPSSTLQELDLNSSLPTQDPIISGQKRRRYDLDEYLEEDKSSVVNDTIKAKDFDESVPAKIRKISVSKKTLKSNW
binding [1]: binds | binding [2]: no binding | binding [3]: no binding | binding [4]: binds

B2: GFP-Mek1 (pGAL1::GFP-MEK1) (enzyme, UniProt P24719 1-497)
chain: MRPLYSCNLATKDDIEMAGGVAPAHLEVNVGGYNTEQTIPIVKHQLVKVGRNDKECQLVLTNPSISSVHCVFWCVFFDEDSIPMFYVKDCSLNGTYLNGLLLKRDKTYLLKHCDVIELSQGSEENDIKKTRLVFMINDDLQSSLDPKLLDQMGFLREVDQWEITNRIVGNGTFGHVLITHNSKERDEDVCYHPENYAVKIIKLKPNKFDKEARILLRLDHPNIIKVYHTFCDRNNHLYIFQDLIPGGDLFSYLAKGDCLTSMSETESLLIVFQILQALNYLHDQDIVHRDLKLDNILLCTPEPCTRIVLADFGIAKDLNSNKERMHTVVGTPEYCAPEVGFRANRKAYQSFSRAATLEQRGYDSKCDLWSLGVITHIMLTGISPFYGDGSERSIIQNAKIGKLNFKLKQWDIVSDNAKSFVKDLLQTDVVKRLNSKQGLKHIWIAKHLSQLERLYYKKILCNNEGPKLESINSDWKRKLPKSVIISQAIPKKKKVLE
binding [1]: binds | binding [2]: binds | binding [3]: binds | binding [4]: binds
